Test results: patent US6869925 (Amgen, dated 2005)
Results are given in words; binding and its absence hold for the method and conditions named. Some binding calls cover weakened binding; strength is not graded here.

Molecular target: T1, cathepsin G (UniProt P08311)
T1 sequence (looked up): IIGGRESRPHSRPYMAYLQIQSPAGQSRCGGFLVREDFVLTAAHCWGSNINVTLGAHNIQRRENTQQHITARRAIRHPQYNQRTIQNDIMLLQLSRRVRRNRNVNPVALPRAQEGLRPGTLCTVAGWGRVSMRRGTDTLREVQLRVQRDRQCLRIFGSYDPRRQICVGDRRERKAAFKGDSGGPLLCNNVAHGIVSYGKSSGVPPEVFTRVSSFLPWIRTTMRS
Experiment: BIAcore, immobilized Phe72 mutein, monoS fractions of CHAPS-solubilized U937 membranes; identity by comparison of profiles

B1: SLPI mutein Phe 72 (other, human, UniProt P03973 26-132, looked up)
chain: SGKSFKAGVCPPKKSAQCLRYKKPECQSDWQCPGKKRCCPDTCGIKCLDPVDTPNPTRRKPGKCPVTYGQCFMLNPPNFCEMDGQCKRDLKCCMGMCGKSCVSPVKA
notes: mature; also called Phe72 mutein
- binding: binds
